Data as given in EP4563573A1, “COMPOUND, AND PREPARATION METHOD THEREFOR AND USE THEREOF IN PREPARATION OF SEH INHIBITOR AND PPARS AGONIST” (Shenyang Pharmaceutical University, priority 2023, dated 2024).
At least one structure is not confirmed: it was looked up by name or label, or the drawing left a doubt.

Test system: CD60 diet + streptozotocin-induced diabetes
Experiment: CD60 feed + streptozotocin-induced diabetes model
Type: in vivo, male C57BL/6 mice
Settings: SP compounds 30 and 90 mg/kg; pioglitazone 3 mg/kg
Description: Diabetes is a chronic metabolic disease characterized by elevated blood glucose, and its incidence has been increasing over the past few decades. There is no desirable therapeutic drug at present, and the research on drugs for the treatment of diabetes and its related complications such as diabetic pain is highly urgent. […] Compared with the Control group, ****P<0.0001, ***P<0.001, **P<0.01 and *P<0.05.

CCc1ccc(CCOc2ccc(CC3SC(=O)NC3=O)cc2)nc1 (stereo not shown) [pioglitazone, reference compound]
lowering blood glucose and improving diabetic neuropathic pain: not achieved
